Some of the results follow. Single values are uncertain, as repeats are few or missing.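 Cells were imaged in 1,536-well plates, and nuclei stained with an antibody against cleaved PARP were counted against all DNA-stained nuclei to give the apoptosis fraction. Screening doses were chosen to leave most cells alive, and resting and induced cleaved-PARP levels differ strongly between cell lines.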
What follows are compounds tested on WM115 (assay: cleaved PARP positive nuclei fraction relative to DMSO control; melanoma cells; higher = more apoptosis). Conditions: library dose: low library concentration; 72 h.

How did the “cleaved PARP positive nuclei fraction” value turn out when `COc1ccc(C2=N[C@@H](c3ccc(Cl)cc3)[C@@H](c3ccc(Cl)cc3)N2C(=O)N2CCNC(=O)C2)c(OC(C)C)c1` [Nutlin-3] + Cc1cc(SCc2sc(-c3ccc(C(F)(F)F)c(F)c3)nc2C)ccc1OCC(=O)O [GW0742] (first compound 0.1 µM, partner dose 2 µM) was run?
Its value is 35.7%.

Which “cleaved PARP positive nuclei fraction” value does the source give for `Cn1cc(C2=C(c3cn(C4CCN(Cc5ccccn5)CC4)c4ccccc34)C(=O)NC2=O)c2ccccc21` [Enzastaurin] + O=C(Nc1cccc(Cl)c1)Nc1ncc(CCNc2ncnc3ccsc23)s1 [SNS314] (first compound 0.8 µM, partner dose 0.0008 µM) here?
Its value is 46.5%.

`COc1cc(Nc2ncc(F)c(Nc3ccc4c(n3)NC(=O)C(C)(C)O4)n2)cc(OC)c1OC` [Tamatinib] + O=C(Oc1ccc([N+](=O)[O-])cc1)N1CCC(C(O)(c2ccc3c(c2)OCO3)c2ccc3c(c2)OCO3)CC1 [JZL184] (first compound 0.4 µM, partner dose 1 µM) was tested. Which “cleaved PARP positive nuclei fraction” value did it give?
Its value is 175%.

With `Cn1cc(C2=C(c3cn(C4CCN(Cc5ccccn5)CC4)c4ccccc34)C(=O)NC2=O)c2ccccc21` [Enzastaurin] + COc1cc(N2CCC(N3CCN(C)CC3)CC2)ccc1Nc1ncc(Cl)c(Nc2ccccc2S(=O)(=O)C(C)C)n1 [NVP-TAE684] (first compound 0.8 µM, partner dose 0.08 µM) as the compound, how does the “cleaved PARP positive nuclei fraction” value read?
Its value is 212%.

Which “cleaved PARP positive nuclei fraction” value does the source give for `N.N.[Cl][Pt][Cl]` [cisplatin] + O=C(Oc1ccc([N+](=O)[O-])cc1)N1CCC(C(O)(c2ccc3c(c2)OCO3)c2ccc3c(c2)OCO3)CC1 [JZL184] (first compound 1.6 µM, partner dose 1 µM) here?
The value was 199%.

With `Cn1cc(C2=C(c3cn(C4CCN(Cc5ccccn5)CC4)c4ccccc34)C(=O)NC2=O)c2ccccc21` [Enzastaurin] + COc1ccc(Cl)c(Nc2nc3ccccc3nc2NS(=O)(=O)c2cccc(NC(=O)C(C)(C)N)c2)c1 [XL147] (first compound 0.8 µM, partner dose 0.8 µM) as the compound, how does the “cleaved PARP positive nuclei fraction” value read?
Its value is 83.2%.

For `Nc1ncn([C@H]2C[C@H](O)[C@@H](CO)O2)c(=O)n1` [decitabine] + O=C(Oc1ccc([N+](=O)[O-])cc1)N1CCC(C(O)(c2ccc3c(c2)OCO3)c2ccc3c(c2)OCO3)CC1 [JZL184] (first compound 0.1 µM, partner dose 1 µM), which “cleaved PARP positive nuclei fraction” value is on record?
Its value is 180%.

With `Cc1cc(SCc2sc(-c3ccc(C(F)(F)F)c(F)c3)nc2C)ccc1OCC(=O)O` + Oc1cc(-c2nc(-c3ccccc3)[nH]c2-c2ccncc2)ccc1Cl [L779450] (first compound 2 µM, partner dose 0.2 µM) as the compound, how does the “cleaved PARP positive nuclei fraction” value read?
The value was 109%.

Which “cleaved PARP positive nuclei fraction” value does the source give for `C[C@]12O[C@H](C[C@]1(O)CO)n1c3ccccc3c3c4c(c5c6ccccc6n2c5c31)CNC4=O` [Lestaurtinib] + CC(C)CCN1c2nc(Nc3cc(F)c(O)c(F)c3)ncc2N(C)C(=O)C1C [BID1870] (first compound 0.004 µM, partner dose 0.2 µM) here?
Its value is 226%.

For `N#CC[C@H](C1CCCC1)n1cc(-c2ncnc3[nH]ccc23)cn1` [ruxolitinib] + C[C@]12O[C@H](C[C@]1(O)CO)n1c3ccccc3c3c4c(c5c6ccccc6n2c5c31)CNC4=O [Lestaurtinib] (first compound 1 µM, partner dose 0.004 µM), which “cleaved PARP positive nuclei fraction” value is on record?
The value was 85.7%.

How did the “cleaved PARP positive nuclei fraction” value turn out when `C=C(c1ccc(C(=O)O)cc1)c1cc2c(cc1C)C(C)(C)CCC2(C)C` [Bexarotene] + O=C(Oc1ccc([N+](=O)[O-])cc1)N1CCC(C(O)(c2ccc3c(c2)OCO3)c2ccc3c(c2)OCO3)CC1 [JZL184] (first compound 2 µM, partner dose 1 µM) was run?
Its value is 107%.

How did the “cleaved PARP positive nuclei fraction” value turn out when `COc1ccc(-c2ccc3c(N4CCOCC4)nc(N4C[C@@H](C)O[C@@H](C)C4)nc3n2)cc1CO` + O=C(Oc1ccc([N+](=O)[O-])cc1)N1CCC(C(O)(c2ccc3c(c2)OCO3)c2ccc3c(c2)OCO3)CC1 [JZL184] (first compound 0.02 µM, partner dose 1 µM) was run?
The value was 132%.

For `C[C@@H](Oc1cc(-c2cnn(C3CCNCC3)c2)cnc1N)c1c(Cl)ccc(F)c1Cl` [Crizotinib] + Cc1cc(SCc2sc(-c3ccc(C(F)(F)F)c(F)c3)nc2C)ccc1OCC(=O)O [GW0742] (first compound 0.2 µM, partner dose 2 µM), which “cleaved PARP positive nuclei fraction” value is on record?
The value was 357%.
